Reference: US20260223852A1, “FUNGICIDAL COMPOSITIONS” (SYNGENTA CROP PROTECTION AG, priority 2023, published 2026)
Some results were stated once for a whole list of compounds, not compound by compound.

Assays:
[1] = test system: Gibberella zeae (Fusarium graminearum); assay type: in vivo; conditions: 200 ppm; wheat spikelet preventative, compared to untreated control
Fusarium culmorum = assay type: in vivo; conditions: 200 ppm; wheat spikelet preventative, compared to untreated control

Cn1cc(C(C)(CNC(=O)c2cc(-c3ncc(F)cc3F)on2)c2cccc(Cl)n2)cn1 (centres unmarked) [X.11, N-[2-(6-chloro-2-pyridyl)-2-(1-methylpyrazol-4-yl)propyl]-5-(3,5-difluoro-2-pyridyl)isoxazole-3-carboxamide]
control of Gibberella zeae [1]: at least 80%

Cn1cc(C(C)(CNC(=O)c2nnc(-c3ncc(F)cc3F)s2)c2cccc(Cl)n2)cn1 (centres unmarked) [X.15, N-[2-(6-chloro-2-pyridyl)-2-(1-methylpyrazol-4-yl)propyl]-5-(3,5-difluoro-2-pyridyl)-1,3,4-thiadiazole-2-carboxamide]
control of Fusarium culmorum (Fusarium culmorum): at least 80%
